Test [1] addresses T1, HA-tagged X. tropicalis JunB (X. tropicalis) (UniProt Q28IY7).
T1 sequence: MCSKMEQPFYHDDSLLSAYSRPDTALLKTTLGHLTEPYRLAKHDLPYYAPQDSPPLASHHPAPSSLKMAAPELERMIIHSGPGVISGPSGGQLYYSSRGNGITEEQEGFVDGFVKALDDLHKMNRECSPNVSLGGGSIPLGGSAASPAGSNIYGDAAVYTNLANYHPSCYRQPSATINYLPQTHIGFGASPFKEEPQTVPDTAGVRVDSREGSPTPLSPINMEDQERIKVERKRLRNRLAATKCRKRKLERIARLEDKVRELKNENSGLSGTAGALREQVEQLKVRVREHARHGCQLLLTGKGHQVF
Put plainly: co-IP; lysate of X. tropicalis embryos co-injected with Flag-xFosl1 and HA-xJunB plasmids (48 h); precipitated overnight at 4 °C with anti-Flag or anti-HA, magnetic beads, IgG as negative control; western blotting.

Test [2] has as its target T2, JunB (mouse, endogenous) (mouse (endogenous in neonatal mouse heart)) (UniProt P09450).
T2 sequence: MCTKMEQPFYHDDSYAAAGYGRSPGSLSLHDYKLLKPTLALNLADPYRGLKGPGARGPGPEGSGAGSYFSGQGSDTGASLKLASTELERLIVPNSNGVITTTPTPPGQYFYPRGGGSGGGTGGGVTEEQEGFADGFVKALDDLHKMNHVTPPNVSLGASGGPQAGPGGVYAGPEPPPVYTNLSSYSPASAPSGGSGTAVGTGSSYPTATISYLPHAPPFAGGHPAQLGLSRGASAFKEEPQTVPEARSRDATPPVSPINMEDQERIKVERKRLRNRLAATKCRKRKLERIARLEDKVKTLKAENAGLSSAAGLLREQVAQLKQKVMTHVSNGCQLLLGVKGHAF
Description: co-IP; endogenous proteins from neonatal mouse heart, regenerating (apex resection) compared with quiescent; anti-Fosl1 and anti-JunB antibodies; western blotting.

Results are given in words; binding and its absence hold for the method and conditions named. In cells and extracts the contact can be indirect. Some results given as binding are weak or reduced against the parent protein; the word gives no strength. For some assays here: Tags and fused reporters may be left off the sequences shown.

B1: Flag-tagged X. tropicalis Fosl1 (protein, UniProt F7CZ65 1-298)
chain: MYRDFTGAFPQPDSGCSSHGLRNSGSSPILGTSGMGHSVRLNPPPEDAQQKYPVHTSSGQFIPTLNAITSSQDLNWMIQPSVRPLNLPPYQSPRHGVIRNMGGVLSMGRRRNGEHLSPEEEERRRVRRERNKVAAAKCRNRRKELTDYLQAETDKLEEEKSSLQKEIAELQKQKDKLELILEAHQPICKFPDSHHNMQQVDSSRLVKKEPHEESPRGPKVNLPRIELSDTILEPEALHTPTLMKTPSITPFTPNLVFTYPGPQESCSTAHRRLSRSSSSGSSGEQSPCSLSSNSLLTL
Regarding B1, the binding entry in test [1] is on record as “binds”.

B2: Fosl1 (mouse, endogenous) (protein, UniProt P48755 1-273)
chain: MYRDYGEPGPSSGAGSPYGRPAQPPQAQAQTAQQQKFHLVPSIDSSSQELHWMVQPHFLGPTGYPRPLAYPQYSPPQPRPGVIRALGPPPGVRRRPCEQISPEEEERRRVRRERNKLAAAKCRNRRKELTDFLQAETDKLEDEKSGLQREIEELQKQKERLELVLEAHRPICKIPEGDKKDPGGSGSTSGASSPPAPGRPVPCISLSPGPVLEPEALHTPTLMTTPSLTPFTPSLVFTYPSTPEPCSSAHRKSSSSSGDPSSDPLGSPTLLAL
With B2, the binding entry in test [2] is recorded as “binds”.

For the origin of these results see article PMC8242016.
